Measurements reported in PubChem BioAssay AID1508597 (Cure First, 2020)

Test: 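Knock-downs altering ovarian cancer cell survival with or without PARP inhibitor rucaparib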 (primary screen)
System: human ovarian carcinoma lines grown from tumours: OCI-P5x (papillary serous) and OCI-C5x (clear cell)
Reagent: siRNA pool against human genes, 1.25 pmol siRNA per well
Timing: 72 h or 96 h, depending on the cell culture
Treatment: rucaparib 20 µM (about IC30) or vehicle, present until read-out
Detection: 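ATP luminescence measured at 72 or 96 h according to the culture, then normalised and expressed as percent viability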
Scale: viability, normalised: higher = more viable cells remaining
Call rule: 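Active when normalised viability falls below 80 percent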
Calls: active = viability under 80%; inactive = viability 80% or more
Here is a random part of about 2,100 reagents tested. 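Calls flag viability under 80% in either arm, not effects specific to rucaparib; the reference for percent is not stated.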 Entries without a mark were called inactive. Not stated in the record: the 100% reference.

{"gene": "DHX37", "rucaparib or vehicle": "Rucaparib", "cell line": "OCI-C5x (clear cell)", "technical replicate": "1", "viability, normalised (%)": "62.9 (active)"}
{"gene": "DHX37", "rucaparib or vehicle": "Rucaparib", "cell line": "OCI-C5x (clear cell)", "technical replicate": "2", "viability, normalised (%)": "47.1 (active)"}
{"gene": "DHX37", "rucaparib or vehicle": "Rucaparib", "cell line": "OCI-C5x (clear cell)", "technical replicate": "3", "viability, normalised (%)": "44.5 (active)"}
{"gene": "DHX37", "rucaparib or vehicle": "Rucaparib", "cell line": "OCI-P5x (serous)", "technical replicate": "1", "viability, normalised (%)": "57.4 (active)"}
{"gene": "DHX37", "rucaparib or vehicle": "Rucaparib", "cell line": "OCI-P5x (serous)", "technical replicate": "2", "viability, normalised (%)": "50.1 (active)"}
{"gene": "DHX37", "rucaparib or vehicle": "Rucaparib", "cell line": "OCI-P5x (serous)", "technical replicate": "3", "viability, normalised (%)": "44.6 (active)"}
{"gene": "DHX37", "rucaparib or vehicle": "Vehicle", "cell line": "OCI-C5x (clear cell)", "technical replicate": "1", "viability, normalised (%)": "34.7 (active)"}
{"gene": "DHX37", "rucaparib or vehicle": "Vehicle", "cell line": "OCI-C5x (clear cell)", "technical replicate": "2", "viability, normalised (%)": "50.8 (active)"}
{"gene": "DHX37", "rucaparib or vehicle": "Vehicle", "cell line": "OCI-C5x (clear cell)", "technical replicate": "3", "viability, normalised (%)": "45.5 (active)"}
{"gene": "DHX37", "rucaparib or vehicle": "Vehicle", "cell line": "OCI-P5x (serous)", "technical replicate": "1", "viability, normalised (%)": "59.8 (active)"}
{"gene": "DHX37", "rucaparib or vehicle": "Vehicle", "cell line": "OCI-P5x (serous)", "technical replicate": "2", "viability, normalised (%)": "66.7 (active)"}
{"gene": "DHX37", "rucaparib or vehicle": "Vehicle", "cell line": "OCI-P5x (serous)", "technical replicate": "3", "viability, normalised (%)": "69.1 (active)"}
